Data as given in PubChem BioAssay AID1259308 (NCATS, 2017)
The deposit covers about 59,000 reagents; shown is a random part of them. About 1,510 of them (2.6%) count as active. 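Calls use total luciferase alone and ignore viability, so some active siRNAs may act by altering cell number.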 The numbers tell different reagents against one gene apart. Further read-outs or replicates are left out here.

Assay: 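Genes whose loss raises luciferase production in HEK293 cells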 (primary screen)
System: human HEK293 embryonic kidney cells stably expressing firefly luciferase (HEK-CMV-Luc2-Hygro)
Reagents: single siRNA against human genes, 0.8 pmol siRNA per well
Timing: 72 h
Read-out: 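Reporter luminescence and viable-cell signal on separate replicate plates, given as percent of non-targeting control and median/MAD z-scores, plus per-cell luciferase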
Scale: total luciferase, z-score and total luciferase, % of control: higher = more reporter protein produced
Call rule: 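Active when the median/MAD z-score for overall luciferase is greater than 3; a gene was taken forward for validation with new siRNAs if at least two of its three siRNAs passed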
Meaning of the calls: active = raised luciferase; inactive = no rise

target gene	reagent no.	total luciferase, z-score	total luciferase, % of control	Outcome
IL5	1	0.357	89	inactive
IL5	2	-0.389	74.1	inactive
IL5	3	-1.71	47.8	inactive
NDUFAB1	1	1.84	118	inactive
NDUFAB1	2	-2.15	39.2	inactive
NDUFAB1	3	-2.12	39.7	inactive
DLX1	1	1.92	120	inactive
DLX1	2	-0.728	67.4	inactive
DLX1	3	0.444	90.7	inactive
CREBL2	1	-1.31	55.8	inactive
CREBL2	2	2.13	124	inactive
CREBL2	3	-0.0669	80.6	inactive
NLRP3	1	-1.67	48.6	inactive
NLRP3	2	-0.477	72.4	inactive
NLRP3	3	-1.12	59.5	inactive
TSGA10IP	1	2.05	123	inactive
TSGA10IP	2	0.711	96	inactive
TSGA10IP	3	2	122	inactive
CCL17	1	-0.287	76.2	inactive
CCL17	2	0.0849	83.6	inactive
CCL17	3	-0.0324	81.2	inactive
WDR35	1	-0.191	78.1	inactive
WDR35	2	2.49	131	inactive
WDR35	3	-1.37	54.7	inactive
